From publication PMC12853711 come the findings set out here.

Sequences of proteins named here, by UniProt entry; tags and fusion partners are left off.
UniProt Q99873: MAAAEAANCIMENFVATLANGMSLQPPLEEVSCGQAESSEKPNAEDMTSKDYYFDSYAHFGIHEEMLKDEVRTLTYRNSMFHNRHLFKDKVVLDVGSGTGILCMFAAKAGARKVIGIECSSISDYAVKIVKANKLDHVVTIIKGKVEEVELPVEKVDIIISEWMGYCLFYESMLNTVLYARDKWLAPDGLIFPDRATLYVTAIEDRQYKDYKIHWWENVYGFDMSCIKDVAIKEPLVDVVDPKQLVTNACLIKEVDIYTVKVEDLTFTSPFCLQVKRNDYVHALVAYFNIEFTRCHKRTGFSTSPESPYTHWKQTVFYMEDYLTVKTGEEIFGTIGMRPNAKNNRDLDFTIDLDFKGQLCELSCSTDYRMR
UniProt O14744: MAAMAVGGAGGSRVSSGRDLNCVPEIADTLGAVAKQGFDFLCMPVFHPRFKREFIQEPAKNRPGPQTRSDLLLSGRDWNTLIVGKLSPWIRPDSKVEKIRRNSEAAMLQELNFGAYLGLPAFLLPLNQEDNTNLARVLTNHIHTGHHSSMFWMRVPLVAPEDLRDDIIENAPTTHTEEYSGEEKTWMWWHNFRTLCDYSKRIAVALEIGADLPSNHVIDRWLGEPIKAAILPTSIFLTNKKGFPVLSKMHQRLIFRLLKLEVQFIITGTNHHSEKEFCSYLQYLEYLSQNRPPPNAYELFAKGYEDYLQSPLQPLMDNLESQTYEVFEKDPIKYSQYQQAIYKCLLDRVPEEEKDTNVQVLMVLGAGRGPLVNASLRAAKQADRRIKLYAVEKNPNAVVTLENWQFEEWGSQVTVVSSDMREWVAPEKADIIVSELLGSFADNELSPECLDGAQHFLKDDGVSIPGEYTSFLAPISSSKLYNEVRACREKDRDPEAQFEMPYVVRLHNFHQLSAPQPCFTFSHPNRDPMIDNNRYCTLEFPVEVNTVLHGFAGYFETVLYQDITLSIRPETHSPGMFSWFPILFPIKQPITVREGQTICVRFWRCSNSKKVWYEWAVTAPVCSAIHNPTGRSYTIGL

The experiment has as its target T1, HA-tagged TRIM59 (UniProt Q8IWR1).
T1 sequence: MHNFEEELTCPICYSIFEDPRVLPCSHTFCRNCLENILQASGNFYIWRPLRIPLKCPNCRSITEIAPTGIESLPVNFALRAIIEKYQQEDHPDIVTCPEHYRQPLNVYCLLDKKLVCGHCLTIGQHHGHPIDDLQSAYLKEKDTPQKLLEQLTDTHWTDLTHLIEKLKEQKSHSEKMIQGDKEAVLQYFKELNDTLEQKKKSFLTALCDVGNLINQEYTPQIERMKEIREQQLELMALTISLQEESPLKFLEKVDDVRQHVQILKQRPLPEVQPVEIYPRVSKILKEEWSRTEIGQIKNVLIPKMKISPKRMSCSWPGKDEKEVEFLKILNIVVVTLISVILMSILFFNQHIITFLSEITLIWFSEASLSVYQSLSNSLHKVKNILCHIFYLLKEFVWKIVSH
The experiment in a line: affinity purification with mass spectrometry; IP with an anti-HA antibody from SK-N-BE(2) cells stably expressing HA-TRIM59 or an empty vector, LC-MS; criterion of at least six unique peptides.

No constants are given. Whether binding was seen depends on the method and setting. Binding seen in cells or lysates may run through a third protein. Here binding means that the protein was enriched with, or labelled near, the bait; the list need not be complete. Sequences can lack the tags named with a protein.

Regarding “PRMT1 (from UniProt Q99873 1-371) (enzyme)”, the binding result is on record as “binds”.
Turning to “PRMT5 (from UniProt O14744 1-637) (enzyme)”, the binding entry is reported as “binds”.
